Paper PMC8789831
Results are given in words; binding and its absence hold for the method and conditions named. Binding seen in cells or lysates may run through a third protein. Some entries that bind do so weakly or less than the wild type.

Target: endogenous TCP1α (human (endogenous in HeLa)) (UniProt P17987)
Experiment: co-IP; data not shown; coprecipitation with endogenous TCP1α in the presence of a (de)polymerization inhibitor with bafilomycin A1

In the case of p62 (from UniProt Q13501 1-440), the binding is reported as “binds”.
